# Results taken from paper PMC7819943, “Rice protein-binding microarrays: a tool to detect cis-acting elements near promoter regions in rice”.
# The other results are listed elsewhere or left out.
# Molecular target: T1, OsSMF1 (Oryza sativa, UniProt Q6ZLB0 1-436)
# T1 sequence: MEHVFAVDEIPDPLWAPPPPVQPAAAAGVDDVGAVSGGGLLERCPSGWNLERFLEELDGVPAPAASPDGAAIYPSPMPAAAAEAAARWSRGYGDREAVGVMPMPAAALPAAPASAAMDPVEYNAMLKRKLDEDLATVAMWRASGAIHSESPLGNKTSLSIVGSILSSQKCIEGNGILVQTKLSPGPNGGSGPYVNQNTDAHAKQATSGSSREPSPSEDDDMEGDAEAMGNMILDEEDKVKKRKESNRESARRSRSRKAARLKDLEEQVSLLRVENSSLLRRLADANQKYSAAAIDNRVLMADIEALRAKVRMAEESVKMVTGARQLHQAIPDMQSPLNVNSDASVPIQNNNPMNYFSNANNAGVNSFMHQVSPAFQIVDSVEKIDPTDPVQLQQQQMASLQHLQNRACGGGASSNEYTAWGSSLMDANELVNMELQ
# Assay: protein-binding microarray (RPBM); PBS, 2% BSA, 51.3 ng/ul salmon testes DNA, 50 uM zinc acetate, 200 nM TF, 25 C, 1 h; high values mean tight binding
# Conditions: protein: recombinant; tags: N-terminal polyhistidine and DsRed monomer fusion (pET32a); chain copies: 2; label: CyDye5-dUTP incorporated in the synthesized complementary strand; 3' TTTTT single-stranded linker to array surface; dsDNA, one strand shown
# Outline: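 Per-feature fluorescence intensity (arbitrary units), read on an Axon 4000B scanner, is the binding signal. Transcription factors carrying an N-terminal polyhistidine tag and DsRed fusion were expressed in E. coli BL21-CodonPlus and purified on Ni–NTA. A custom Agilent array, made double-stranded by primer extension with Cy5-dUTP and blocked with 2% BSA, was incubated with 200 nM protein in PBS, 2% BSA, salmon testes DNA and 50 µM zinc acetate at 25 °C for 1 h and then washed.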
row,Sequence,binding signal
1,TGTGTGTATAACAGGTGAGACCATATACATGTGTATATAACGGAGTCACCTAGTGCAG,3160 fluorescence intensity (a.u.)
2,AACACTTGCGCATCCACCCACCCCAACCGACCAAAGCTCGCGGAGTCACCTAGTGCAG,3490 fluorescence intensity (a.u.)
3,TAGGCCCCATCCATCAATCCATCACGCTGGGCCGTCTGTGCGGAGTCACCTAGTGCAG,3320 fluorescence intensity (a.u.)
4,GATTTGCCACCTAAGAACTAGATGAGGCAATAAATATACCCGGAGTCACCTAGTGCAG,4480 fluorescence intensity (a.u.)
5,ATGACGAGGGTGGATCCGTGGATGTGCGTTGGCTGCCTATCGGAGTCACCTAGTGCAG,4096 fluorescence intensity (a.u.)
6,ACAAATGGATCCACCCATTAGATGACGTGGTTCTTTCCCTCGGAGTCACCTAGTGCAG,14500 fluorescence intensity (a.u.)
7,CCCGTTCCCCTTCCCCACTCCGTCCCGGCAGCTACCTCCGCGGAGTCACCTAGTGCAG,8040 fluorescence intensity (a.u.)
8,AATCTAGACATCTATCTAATGTGACACCTCACGGGTGAAGCGGAGTCACCTAGTGCAG,4380 fluorescence intensity (a.u.)
9,AAAATCCGATTAGTTAATTAGTTAGTTAAGTGATGTGGTACGGAGTCACCTAGTGCAG,3630 fluorescence intensity (a.u.)
10,TAGTTTATAACATGTGGATCCTCCATGTGTCTATGATATACGGAGTCACCTAGTGCAG,4020 fluorescence intensity (a.u.)
11,CAAGTGATAATCTATACCTAGTTGATGATGCCAATATCATCGGAGTCACCTAGTGCAG,4340 fluorescence intensity (a.u.)
12,GCCCTCCTCCTTCACTCCCGTGCGTCGTCACTGCCGCAACCGGAGTCACCTAGTGCAG,3370 fluorescence intensity (a.u.)
13,GCGGAAGCGGGAAACAATCTTACCGCCCGCGTCATCGCGCCGGAGTCACCTAGTGCAG,3300 fluorescence intensity (a.u.)
14,GCAGCGACGCGGCGGAGTGGCAGGGCCCGTGGTCAGATGACGGAGTCACCTAGTGCAG,4360 fluorescence intensity (a.u.)
15,TAGCCGCTTCGGCAGCTTTCTTGACTACACGTACTCGGTTCGGAGTCACCTAGTGCAG,3360 fluorescence intensity (a.u.)
16,GTTGGAACAATTAATGTGCTGCAGGCAATAACAATCCAGTCGGAGTCACCTAGTGCAG,48700 fluorescence intensity (a.u.)
17,GTGGCCCGCATGCCAAATTGTGTCACGCAAGCCGTAATCCCGGAGTCACCTAGTGCAG,3620 fluorescence intensity (a.u.)
18,CGGCAACAGCGGTGACAACGTGACGACGGGTGACGAGGCGCGGAGTCACCTAGTGCAG,5320 fluorescence intensity (a.u.)
19,GAGGCGTGCGGGATGGTGTGGGTTAATCTGGGATAAGGATCGGAGTCACCTAGTGCAG,3900 fluorescence intensity (a.u.)
20,TAGTCTTATGATTACCCACCGCCGCACGTGGCCACTTGCTCGGAGTCACCTAGTGCAG,4250 fluorescence intensity (a.u.)
21,TAGTGTCTAGTACTAGTTTCTTGATGATGTGGAGTTTATGCGGAGTCACCTAGTGCAG,6010 fluorescence intensity (a.u.)

row,Sequence,binding signal
1,CTCCTCTAACTAACATAACTTCCCACTGACGTGGTCATTTCGGAGTCACCTAGTGCAG,12900 fluorescence intensity (a.u.)
2,TCTCGTCGTCGACCTCCTCCCGCTGCTCCCGTTGCGGCGGCGGAGTCACCTAGTGCAG,3450 fluorescence intensity (a.u.)
3,AGTAAGTATGTCAGCCAAGTCTCCATGTAAATGTGAATCACGGAGTCACCTAGTGCAG,3670 fluorescence intensity (a.u.)
4,CATTATACTGGAGCATCATTGGACACGTGACAGATTTTGACGGAGTCACCTAGTGCAG,3400 fluorescence intensity (a.u.)
5,CGCCGCCTCCGCCTCGCACAGCCGCCATCCCCGCCTCCGCCGGAGTCACCTAGTGCAG,3260 fluorescence intensity (a.u.)
6,GTAGGCTTTGGTAAAATTCTCACGTCAGGAAGGAACAGCTCGGAGTCACCTAGTGCAG,5060 fluorescence intensity (a.u.)
7,AGGAGGAGGAGGAAGAGCACGACATCGCCATCTCGGCGTCCGGAGTCACCTAGTGCAG,3180 fluorescence intensity (a.u.)
8,CTCGGCGGTCGGGTCCCTTGTCCACGCACGCCTGCGCAGTCGGAGTCACCTAGTGCAG,5060 fluorescence intensity (a.u.)
9,GCCACGCACCGCGCCGCGCGCGCGCACGCACGCTCCCCTTCGGAGTCACCTAGTGCAG,3420 fluorescence intensity (a.u.)
10,TCTTCCAACCGGCCAACGCGTCAACCCTAGCGATCATCCACGGAGTCACCTAGTGCAG,3480 fluorescence intensity (a.u.)
11,TCCAAGGATGATTTCAAGCCAAAACAAATATTTGAAGTATCGGAGTCACCTAGTGCAG,3730 fluorescence intensity (a.u.)
12,GCTTTTATAGATTCTCGGAAACTAACTACCAACCAGCTGCCGGAGTCACCTAGTGCAG,24300 fluorescence intensity (a.u.)
13,ATCAACACATAACTATATGTCTAGGTGTCAGTTTAATAACCGGAGTCACCTAGTGCAG,3920 fluorescence intensity (a.u.)
14,CAGGCCGCCGTGGCTTTCCTTGGAGGGTTCCCTGGTGGTGCGGAGTCACCTAGTGCAG,3340 fluorescence intensity (a.u.)
15,CTGCTTCTGCTGCCGCTTGGGTTGGGCCACGCGAGCGGCTCGGAGTCACCTAGTGCAG,3180 fluorescence intensity (a.u.)
16,ATAAAGGCGAGATCTAGAAGCGACGACGATGACGGGTCGACGGAGTCACCTAGTGCAG,3860 fluorescence intensity (a.u.)
17,TGTGTTAGATAAGTGTGTCCGAACATAATTAATTTCTTTCCGGAGTCACCTAGTGCAG,26100 fluorescence intensity (a.u.)
18,TTCGCTTTGTCCTCACGCACACACGCCTCATGCGTCCGTGCGGAGTCACCTAGTGCAG,3410 fluorescence intensity (a.u.)
19,CTCACGACGGTGCGGCACCAAGAAAGCCAGTGACGTCCCGCGGAGTCACCTAGTGCAG,3560 fluorescence intensity (a.u.)
20,TATATATGGCCTTTGGTCTGCATAGCTGTCCACGTCATCACGGAGTCACCTAGTGCAG,42200 fluorescence intensity (a.u.)
21,CCTCGCGGCACTCCCTCCTCTCTCGCAGACTCGCAGTAGTCGGAGTCACCTAGTGCAG,4480 fluorescence intensity (a.u.)

# Already shown: entries from further up.
row,Sequence,binding signal
14,GCAGCGACGCGGCGGAGTGGCAGGGCCCGTGGTCAGATGACGGAGTCACCTAGTGCAG,4360 fluorescence intensity (a.u.)
15,TAGCCGCTTCGGCAGCTTTCTTGACTACACGTACTCGGTTCGGAGTCACCTAGTGCAG,3360 fluorescence intensity (a.u.)
16,GTTGGAACAATTAATGTGCTGCAGGCAATAACAATCCAGTCGGAGTCACCTAGTGCAG,48700 fluorescence intensity (a.u.)
17,GTGGCCCGCATGCCAAATTGTGTCACGCAAGCCGTAATCCCGGAGTCACCTAGTGCAG,3620 fluorescence intensity (a.u.)
18,CGGCAACAGCGGTGACAACGTGACGACGGGTGACGAGGCGCGGAGTCACCTAGTGCAG,5320 fluorescence intensity (a.u.)
19,GAGGCGTGCGGGATGGTGTGGGTTAATCTGGGATAAGGATCGGAGTCACCTAGTGCAG,3900 fluorescence intensity (a.u.)
20,TAGTCTTATGATTACCCACCGCCGCACGTGGCCACTTGCTCGGAGTCACCTAGTGCAG,4250 fluorescence intensity (a.u.)
